Laboratory results published in doi:10.1101/2024.07.22.604556.

Biological target: CSB-mScarletI (knock-in) (human (endogenous in HCT116)) (UniProt Q03468)
Test: affinity purification with mass spectrometry

Substance	binding
CUL4A (from UniProt Q13619 1-759)	binds
DDB1 (from UniProt Q16531 1-1140)	binds

These are yes or no findings as the source states them, for the method shown. In cells and extracts the contact can be indirect. These calls come from enrichment with a bait or labelling near it, and not all partners need be listed.
